According to patent US20170105953A1, “METHOD FOR SUPPRESSING DIABETES AND/OR HEPATIC LIPIDS USING TORMENTIC ACID” (priority 2015, published 2017):
At least one compound was matched to its structure with a doubt left.

Legend:
[1] = blood parameters in high-fat diet-fed mice; format: in vivo; conditions: HF diet-fed C57BL/6J mice, Rosi 0.01 g/kg/day oral gavage 4 weeks, week 12; vs HF group
Procedure: For part 2, C57BL/6J mice (4 weeks old) were obtained from the National Laboratory Animal Breeding and Research Center. The mice were divided randomly into two groups after 7 days acclimation. […] The compositions of the experimental diets are given in previous studies. […]
Blood samples (0.8 mL) were collected from the retro-orbital sinus of fasted mice, and the glucose level was analyzed by the glucose oxidase method (model 1500; Sidekick Glucose Analyzer; YSI Inc., Yellow Springs, Ohio, USA). Plasma triglycerides (TG), total cholesterol (TC), and free fatty acids (FFA) were measured using commercial assay kits according to the manufacturer's directions (Triglycerides-E test, Cholesterol-E test, and FFA-C test, Wako Pure Chemical, Osaka, Japan). The levels of insulin and leptin in blood were analyzed by ELISA using a commercial assay kit according to the manufacturer's directions (mouse insulin ELISA kit, Sibayagi, Gunma, Japan; and mouse leptin ELISA kit, Morinaga, Yokohama, Japan).

PEPCK = test: semiquantitative RT-PCR, liver PEPCK mRNA; format: in vivo, C57BL/6J mice; conditions: HF diet-fed mice, Rosi 0.01 g/kg/day 4 weeks; normalized to GAPDH, vs HF group
Description: (§1) For part 2, C57BL/6J mice (4 weeks old) were obtained from the National Laboratory Animal Breeding and Research Center. The mice were divided randomly into two groups after 7 days acclimation. The control (CON) group (n=9) was fed a low-fat diet (diet 12450B, Research Diets, Inc., New Brunswick, N.J., USA), whereas the experimental group was fed a 45% high-fat diet (diet 12451, Research Diets, Inc.) for 12 weeks. The compositions of the experimental diets are given in previous studies. […]
(§2) Total RNA from the liver tissue was isolated with a Trizol reagent (Molecular Research Center, Inc., Cincinnati, Ohio, USA) according to the manufacturer's directions. The integrity of the extracted total RNA was examined by 2% agarose gel electrophoresis, and the RNA concentration was determined by ultraviolet (UV) light absorbency at 260 and 280 nm (spectrophotometer U-2800A, Hitachi). […] The relative density of the band was evaluated using AlphaDigiDoc 1201 software (Alpha Innotech Co., San Leandro, Calif., USA). All of the measured PCR products were normalized to the amount of cDNA of GAPDH in each sample. […]

G6 Pase = test: semiquantitative RT-PCR, liver G6 Pase mRNA; format: in vivo, C57BL/6J mice; conditions: HF diet-fed mice, Rosi 0.01 g/kg/day 4 weeks; normalized to GAPDH, vs HF group
Description: as §1, §2

DGAT2 = test: semiquantitative RT-PCR, liver DGAT2 mRNA; format: in vivo, C57BL/6J mice; conditions: HF diet-fed mice, Rosi 0.01 g/kg/day 4 weeks; normalized to GAPDH, vs HF group
Description: as §1, §2

11β-HSD1 = test: semiquantitative RT-PCR, liver 11β-HSD1 mRNA; format: in vivo, C57BL/6J mice; conditions: HF diet-fed mice, Rosi 0.01 g/kg/day 4 weeks; normalized to GAPDH, vs HF group
Description: as §1, §2

SREBP1c = test: semiquantitative RT-PCR, liver SREBP1c mRNA; format: in vivo, C57BL/6J mice; conditions: HF diet-fed mice, Rosi 0.01 g/kg/day 4 weeks; normalized to GAPDH, vs HF group
Description: as §1, §2

FAS = test: semiquantitative RT-PCR, liver FAS mRNA; format: in vivo, C57BL/6J mice; conditions: HF diet-fed mice, Rosi 0.01 g/kg/day 4 weeks; normalized to GAPDH, vs HF group
Description: as §1, §2

apo C-III = test: semiquantitative RT-PCR, liver apo C-III mRNA; format: in vivo, C57BL/6J mice; conditions: HF diet-fed mice, Rosi 0.01 g/kg/day 4 weeks; normalized to GAPDH, vs HF group
Description: as §1, §2

AMPK = test: western blot, phospho-AMPK (Thr172)/total-AMPK in liver tissue and skeletal muscle; format: in vivo, C57BL/6J mice; conditions: HF diet-fed mice, Rosi 0.01 g/kg/day 4 weeks
Description: (§3) FIG. 4A is a western blot analysis showing the protein contents of GLUT4 in skeletal muscle, and phospho-AMPK (Thr172) and total-AMPK (Thr172) in both liver tissue and skeletal muscle, and phospho-Akt (Ser473) and total-Akt (Ser473) in skeletal muscle of the mice receiving tormentic acid (PTA) by oral gavage for 4 weeks; and
(§4) FIG. 4B is a diagram showing the protein contents of GLUT4 in skeletal muscle, the expression levels of phospho-AMPK (Thr172) to total AMPK in both liver tissue and skeletal muscle, and quantified results from FIG. 4A for the phosphorylation status of Akt (p-Akt normalized to total Akt (pAkt/Akt)) in skeletal muscle of the mice receiving tormentic acid (PTA) by oral gavage for 4 weeks.
as §1

GLUT4 = test: western blot, GLUT4 protein in skeletal muscle; format: in vivo, C57BL/6J mice; conditions: HF diet-fed mice, Rosi 0.01 g/kg/day 4 weeks
Description: as §3, §4, §1

Akt = test: western blot, phospho-Akt (Ser473)/total-Akt in skeletal muscle; format: in vivo, C57BL/6J mice; conditions: HF diet-fed mice, Rosi 0.01 g/kg/day 4 weeks
Description: as §3, §4, §1

SMILES: CN(CCOc1ccc(CC2SC(=O)NC2=O)cc1)c1ccccn1 (stereo not drawn) [Rosi, rosiglitazone, reference compound]
- circulating TG (triglyceride) levels [1]: decreased
- mRNA level of PEPCK in liver (PEPCK): significantly decrease
- mRNA level of G6 Pase in liver (G6 Pase): significantly decrease
- mRNA level of DGAT2 in liver (DGAT2): significantly decrease
- mRNA level of 11β-HSD1 in liver (11β-HSD1): significantly decrease
- mRNA level of SREBP1c in liver (SREBP1c): significantly decrease
- mRNA level of FAS in liver (FAS): significantly decrease
- mRNA level of apo C-III in liver (apo C-III): significantly decrease
- expression levels of phospho-AMPK/total-AMPK (AMPK; liver tissue): significantly increase
- expression levels of phospho-AMPK/total-AMPK (AMPK; skeletal muscle): significantly increase
- membrane protein levels of GLUT4 (GLUT4): significantly increased
- expression levels of phospho-Akt/total-Akt (Akt): significantly increased
